# Data from PubChem BioAssay AID504834 (National Center for Advancing Translational Sciences (NCATS), 2011).
# Among all 320,000 compounds or so, about 22,000 (6.9%) were called active. Inconclusive means that the source gave no clear call. Such entries were picked first, then a sample of the others. The call rests on the fitted dose curve; in most records, active means well fitted inhibition curve with a large enough effect; inconclusive means small, poorly fitted or top-dose-only effect, or another doubt; inactive means no such curve, though single readings can be large or run the other way. A potency beside an inconclusive call is a rough fit, not a confirmed value.
# Assay: Primary qHTS for delayed death inhibitors of the malarial parasite plastid, 96 hour incubation
# Settings: P. falciparum luciferase reporter growth; series mostly up to 28.7 µM; activity change, negative = inhibition: at the top concentration
# Method in brief: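 Parasite growth measured via integrated firefly luciferase reporter in P. falciparum. Infected erythrocytes at 2% hematocrit, 0.05% parasitemia final were treated 96 hours at 37 C under 5% CO2, and luminescence was read.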
# On the % scale 0 is the no-effect control and ±100 the full control effect; potency means the concentration at half of the fitted maximal effect.
Compound,Potency,"activity change, negative = inhibition"
C=CCOc1c(Br)cc(/C=N/n2c(CC)n[nH]c2=S)cc1Br,"inconclusive: 18.5 µM [inhibitor, single point]",–
Cc1nnc(SCC(=O)c2c(N)n(Cc3ccccc3)c(=O)n(C)c2=O)n1C,"inconclusive: 0.465 µM [inhibitor, partial curve, poor fit]",–
COc1ccccc1CNCC(=O)Nc1ccc(C(F)(F)F)cc1,–,inactive: 0%
O=[N+]([O-])c1cccn2cc(-c3ccc(Br)cc3)nc12,active: 4.65 µM,–
NC(=O)C1(N2CCCCC2)CCN(C(=O)c2ccc(C#Cc3ccccc3)o2)CC1,"inconclusive: 11.7 µM [inhibitor, single point]",–
Cc1cc2c(=O)n(CC(=O)NCC(=O)Nc3ccc(C(C)C)cc3)cnc2s1,"inconclusive: 18.5 µM [inhibitor, single point]",–
CSc1ccc(CN(C)CC(=O)NC(=O)NCCC2=CCCCC2)cc1,"inconclusive: 2.62 µM [inhibitor, partial curve, poor fit]",–
CCN(CC)S(=O)(=O)c1cc([N+](=O)[O-])ccc1NNC(=O)Nc1ccc(F)cc1,"inconclusive: 18.5 µM [inhibitor, single point]",–
CC(OC(=O)CSc1ccccc1)C(=O)NC1CCCCC1C (stereo not drawn),–,inactive: 58.8%
CCCCn1c(N)c(N(CCOC)C(=O)c2cccc(S(=O)(=O)N(C)c3ccc(C)cc3)c2)c(=O)[nH]c1=O,active: 9.28 µM,–
N#C/C(=C\c1ccc(/C=C(/C#N)c2nn(CCO)c(N)c2C#N)cc1)c1nn(CCO)c(N)c1C#N,–,inactive: -0.165%
O=C(N/N=C/c1ccc([N+](=O)[O-])o1)c1sc2ccccc2c1Cl,active: 1.65 µM,–
Cc1ccc(S(=O)(=O)NCC(c2ccco2)N2CCOCC2)cc1 (stereo not drawn),–,inactive: -23.7%
O=C(NC1CC1)c1c(O)c2ccccc2[nH]c1=O,"inconclusive: 3.29 µM [inhibitor, single point]",–
CCOC(=O)c1ccc(NC(=O)CN2C(=O)C(CC)SC(CC)C2=O)cc1 (stereo not drawn),–,inactive: 49.6%
COc1cc2c(cc1O)[C@@H]1Cc3ccc(OC)c(O)c3CN1CC2,active: 6.57 µM,–
O=S(=O)(Nc1ccc2cn[nH]c2c1)c1ccc(Cl)s1,–,inactive: -5.07%
CCN(NC(=O)C(O)(c1ccccc1)c1ccccc1)C(=O)c1ccccc1,–,inactive: 27.1%
CN(NC(=O)C(C)(C)C)c1nc(-c2ccccc2)nnc1C(F)(F)F,–,inactive: 22.8%
COc1cccc(/C=C/C(=O)c2c(O)cc(C)oc2=O)c1O,–,inactive: -12%
CC(=O)Nc1ccc(/C=C/c2noc(-c3ccccc3O)n2)cc1,–,inactive: 109%
Cc1nc2ccccc2c(=O)n1/N=C/c1ccccn1,–,inactive: 111%
O=C(N/N=C/c1ccncc1)C1CC1(c1ccccc1)c1ccccc1 (stereo not drawn),active: 5.22 µM,–
CC(C1CC1)N(Cc1ccccc1)C(=S)Nc1cccc(C(F)(F)F)c1 (stereo not drawn),"inconclusive: 9.28 µM [inhibitor, partial curve, poor fit]",–

# Copied from the results shown, two compounds:
Compound,Potency,"activity change, negative = inhibition"
CN(NC(=O)C(C)(C)C)c1nc(-c2ccccc2)nnc1C(F)(F)F,–,inactive: 22.8%
COc1cccc(/C=C/C(=O)c2c(O)cc(C)oc2=O)c1O,–,inactive: -12%

# Continued.

Compound,Potency,"activity change, negative = inhibition"
CCOC(=O)c1nn(-c2cccc(OC)c2)c2nc(CC)c(C#N)c(=O)n12,"inconclusive: 18.5 µM [inhibitor, single point]",–
CC(=O)N1CCCc2cc(S(=O)(=O)N3CCCC(C)C3)ccc21 (stereo not drawn),"inconclusive: 3.29 µM [inhibitor, single point]",–
COc1cccc(Oc2ccc(C(F)(F)F)cc2NC(=O)C2=COCCO2)c1,active: 7.38 µM,–
CCOc1cc(CN2CCCC(N3CCN(c4ccc(F)cc4)CC3)C2)ccc1OC (stereo not drawn),–,inactive: -34.7%
CCOc1ccc(NC(=O)C2CCN(S(=O)(=O)c3cccnc3)CC2)cc1,"inconclusive: 11.7 µM [inhibitor, single point]",–
N#Cc1ccc(C23CC4(C2)[C@H](CN(Cc2cccnc2)[C@@H]4c2ccccc2)C3c2ccccc2)cc1 (stereo partly drawn),active: 3.7 µM,–
CN(C)c1ccc(S(=O)(=O)N2CCCCC2)cc1NC(=O)C1CSC2(C)CCC(=O)N12 (stereo not drawn),"inconclusive: 3.29 µM [inhibitor, partial curve, poor fit]",–
COc1ccc(S(=O)(=O)N2CCOC23CCN(S(=O)(=O)c2ccc(F)cc2C)CC3)cc1,"inconclusive: 14.7 µM [inhibitor, single point]",–
CCN(C(=O)Cn1cnc2cc([N+](=O)[O-])ccc2c1=O)C1CCS(=O)(=O)C1 (stereo not drawn),–,inactive: 13.3%
Cc1ccc2c(c1)N(C(=O)CCC(=O)NC1CCC(C)CC1)CCO2 (stereo not drawn),–,inactive: 58.4%
COc1ccc(NC(=O)c2cc(-c3cc(C)c(C)cc3O)n[nH]2)c(OC)c1,"inconclusive: 2.08 µM [inhibitor, full curve]",–
Cc1ccc(-c2nn(Cc3ccccc3)cc2C(=O)N2CCN(c3ccccn3)CC2)cc1,"inconclusive: 10.4 µM [inhibitor, single point]",–
COC(=O)C1=NN(C(=O)c2ccc(C)cc2)C(O)(c2ccc(Cl)cc2)C1 (stereo not drawn),–,inactive: 51.3%
CCN1C(=C(C#N)C#N)C=Cc2cc(C)ccc21,"inconclusive: 0.657 µM [inhibitor, partial curve]",–
COc1ccc(CN2CCNC(=O)C2CC(=O)NCCCn2nnc3ccccc32)cc1C (stereo not drawn),–,inactive: 22.8%
CC1CN(Cc2nc3c(c(=O)n(C)c(=O)n3C)n2CC(=O)c2ccccc2)CC(C)O1 (stereo not drawn),"inconclusive: 2.94 µM [inhibitor, full curve]",–
CCS(=O)(=O)N1CCC(C(=O)N2CCc3ccccc3C2)CC1,"inconclusive: 0.0586 µM [inhibitor, full curve, poor fit]",–
CCN(CC(=O)N1CCN(C)CC1)S(=O)(=O)c1ccc(Cl)cc1,active: 9.28 µM,–
S=C(Nc1ccc2nsnc2c1)N1CCCC1,–,inactive: 9.13%
Cc1onc(-c2ccccc2Cl)c1C(=O)OCC(=O)c1ccc2c(c1)OCCO2,"inconclusive: 18.5 µM [inhibitor, single point]",–
Cc1ccc(C2C3=C(CC(C)(C)CC3=O)Nc3[nH]c(=S)[nH]c(=O)c32)cc1 (stereo not drawn),"inconclusive: 4.15 µM [inhibitor, single point]",–
Cn1cnnc1SCC(=O)Nc1ccc2c(c1)CCC2,–,inactive: 1.23%
CCN(CC)c1ccc(/C=N/N2CCN(Cc3ccc(C)cc3)CC2)c(O)c1,"inconclusive: 11.7 µM [inhibitor, single point]",–
Cc1ccc(S(=O)(=O)n2nc(OC(=O)c3c(F)cccc3Cl)cc2N)cc1,"inconclusive: 13.1 µM [inhibitor, single point]",–
